Test results taken from paper PMC11100217.
Results are given in words; binding and its absence hold for the method and conditions named. In cells and extracts the contact can be indirect. Some results given as binding are weak or reduced against the parent protein; the word gives no strength.

By UniProt entry, the sequences of proteins in these tests, tags left out.
UniProt P52480: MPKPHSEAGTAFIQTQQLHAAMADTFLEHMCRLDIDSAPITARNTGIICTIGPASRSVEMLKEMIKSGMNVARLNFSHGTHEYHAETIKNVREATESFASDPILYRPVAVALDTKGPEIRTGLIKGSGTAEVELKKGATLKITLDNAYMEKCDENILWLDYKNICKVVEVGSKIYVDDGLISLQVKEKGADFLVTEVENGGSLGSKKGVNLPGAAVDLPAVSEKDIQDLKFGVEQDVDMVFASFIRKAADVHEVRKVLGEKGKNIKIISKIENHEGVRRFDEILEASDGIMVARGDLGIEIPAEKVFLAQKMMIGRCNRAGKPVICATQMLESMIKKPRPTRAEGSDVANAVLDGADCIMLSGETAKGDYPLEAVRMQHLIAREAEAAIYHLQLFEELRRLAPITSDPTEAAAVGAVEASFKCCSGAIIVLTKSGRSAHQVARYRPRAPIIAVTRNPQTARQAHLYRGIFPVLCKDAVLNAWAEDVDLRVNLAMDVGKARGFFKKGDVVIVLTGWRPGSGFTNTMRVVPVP
UniProt Q91UZ4: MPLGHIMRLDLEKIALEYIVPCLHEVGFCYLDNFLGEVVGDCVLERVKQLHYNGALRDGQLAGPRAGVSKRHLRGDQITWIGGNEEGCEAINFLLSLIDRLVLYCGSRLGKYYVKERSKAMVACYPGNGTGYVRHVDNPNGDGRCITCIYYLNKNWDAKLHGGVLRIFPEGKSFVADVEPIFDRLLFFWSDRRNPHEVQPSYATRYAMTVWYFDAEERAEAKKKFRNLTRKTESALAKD

Assays:
[1] = target: pyruvate kinase M2 (mouse (endogenous in primary mouse brain cells)) (UniProt P52480); test: co-IP; cell lysate; primary antibody (EGLN3, PKM2 or IgG) 24 h at 4 °C, protein A + G agarose 2 h at 4 °C, washed with PBS, Western blot; forward and reverse
[2] = target: prolyl hydroxylase EGLN3 (mouse (endogenous in primary mouse brain cells)) (UniProt Q91UZ4); test: as above

“prolyl hydroxylase EGLN3 (from UniProt Q91UZ4 1-239) (enzyme)” was tested, and the binding [1] was “binds”.

“pyruvate kinase M2 (from UniProt P52480 1-531) (enzyme)” was tested, and the binding [2] was “binds”.
